Measurements taken from paper PMC10107498.
These are yes or no findings as the source states them, for the method shown. For some assays here: In cells and extracts the contact can be indirect. Some binding calls cover weakened binding; strength is not graded here. Where a sequence is shown, tags or fusion partners need not be part of it.

By UniProt entry, the sequences of proteins in these tests, tags left out. Where a name states a change or a piece, a line headed by the entry shows the natural chain unless it says otherwise.
UniProt Q9FNY0: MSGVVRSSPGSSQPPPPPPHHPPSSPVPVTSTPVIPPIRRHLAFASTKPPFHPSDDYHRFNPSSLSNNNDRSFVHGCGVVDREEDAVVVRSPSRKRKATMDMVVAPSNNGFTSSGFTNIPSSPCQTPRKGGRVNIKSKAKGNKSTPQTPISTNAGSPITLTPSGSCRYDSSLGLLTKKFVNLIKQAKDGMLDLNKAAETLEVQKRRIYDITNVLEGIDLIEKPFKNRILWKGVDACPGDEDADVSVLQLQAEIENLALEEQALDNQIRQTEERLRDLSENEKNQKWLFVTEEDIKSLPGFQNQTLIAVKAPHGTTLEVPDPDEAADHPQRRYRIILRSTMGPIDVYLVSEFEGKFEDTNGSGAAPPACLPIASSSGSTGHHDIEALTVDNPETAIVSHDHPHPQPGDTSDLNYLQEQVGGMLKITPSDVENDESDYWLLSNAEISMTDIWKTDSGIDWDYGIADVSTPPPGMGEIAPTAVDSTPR

T1: SNF1-related protein kinase 1 (SnRK1.1), Gal4 DNA-binding domain fusion in pGBKT7 (Arabidopsis thaliana) (UniProt Q38997)
T1 sequence: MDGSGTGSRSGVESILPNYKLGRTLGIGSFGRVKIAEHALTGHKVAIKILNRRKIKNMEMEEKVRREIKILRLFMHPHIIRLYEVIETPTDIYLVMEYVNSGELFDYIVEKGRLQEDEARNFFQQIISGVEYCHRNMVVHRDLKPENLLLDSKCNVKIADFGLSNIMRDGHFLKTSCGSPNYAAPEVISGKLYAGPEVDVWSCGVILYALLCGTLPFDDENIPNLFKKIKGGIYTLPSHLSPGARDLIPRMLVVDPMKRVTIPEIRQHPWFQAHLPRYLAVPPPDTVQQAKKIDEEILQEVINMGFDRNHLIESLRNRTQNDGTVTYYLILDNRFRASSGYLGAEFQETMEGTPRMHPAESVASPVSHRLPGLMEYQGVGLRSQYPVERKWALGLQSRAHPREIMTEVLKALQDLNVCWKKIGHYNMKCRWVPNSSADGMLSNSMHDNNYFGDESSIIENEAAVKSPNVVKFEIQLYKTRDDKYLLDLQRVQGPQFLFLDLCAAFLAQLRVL


Assays:
[1] = target: T1, SNF1-related protein kinase 1 (SnRK1.1), Gal4 DNA-binding domain fusion in pGBKT7 (Arabidopsis thaliana); assay: two-hybrid; Clontech system, yeast AH109; SnRK1.1 constructs in pGBKT7, E2F constructs in pGADT7; growth on medium lacking His, Leu and Trp with 0.5 mM 3-amino-1,2,4-triazole
[2] = target: E2Fa-GFP expressed in Arabidopsis protoplasts (Arabidopsis thaliana) (UniProt Q9FNY0); assay: co-IP; Arabidopsis mesophyll protoplasts transfected with E2Fa-GFP with or without SnRK1.1-HA, 11 h with 5 uM MG132; lysate on ChromoTek beads (IP with anti-GFP), 6 h at 4 °C; immunoblot

binding [1] | binding [2] | Molecule
binds |  | E2Fa^282–352 fragment including the marked box (MB) domain, Gal4 activation domain fusion in pGADT7 (from UniProt Q9FNY0 282-352) (domain or fragment)
 | binds | HA-tagged SnRK1.1 (SnRK1.1-HA) expressed in Arabidopsis protoplasts (enzyme, UniProt Q38997 1-512) MDGSGTGSRSGVESILPNYKLGRTLGIGSFGRVKIAEHALTGHKVAIKILNRRKIKNMEMEEKVRREIKILRLFMHPHIIRLYEVIETPTDIYLVMEYVNSGELFDYIVEKGRLQEDEARNFFQQIISGVEYCHRNMVVHRDLKPENLLLDSKCNVKIADFGLSNIMRDGHFLKTSCGSPNYAAPEVISGKLYAGPEVDVWSCGVILYALLCGTLPFDDENIPNLFKKIKGGIYTLPSHLSPGARDLIPRMLVVDPMKRVTIPEIRQHPWFQAHLPRYLAVPPPDTVQQAKKIDEEILQEVINMGFDRNHLIESLRNRTQNDGTVTYYLILDNRFRASSGYLGAEFQETMEGTPRMHPAESVASPVSHRLPGLMEYQGVGLRSQYPVERKWALGLQSRAHPREIMTEVLKALQDLNVCWKKIGHYNMKCRWVPNSSADGMLSNSMHDNNYFGDESSIIENEAAVKSPNVVKFEIQLYKTRDDKYLLDLQRVQGPQFLFLDLCAAFLAQLRVL
